Measurements reported in PubChem BioAssay AID1259254 (NCATS, 2017).

Purpose: 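Finding genes that stop cells copying their DNA twice in one cycle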 (primary screen)
Cell system: human HCT116 colorectal cancer cells
Reagents: single siRNA against human genes
Timing: 3 days
Read-out: 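Nuclei stained with Hoechst and imaged; cell-cycle phase assigned by DNA content; G2 share scaled per plate, non-targeting siRNA 0%, GMNN siRNA 100%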
Reading the numbers: G2 robust z-score and G2 cells, % of GMNN control: higher = more G2 cells, more excess DNA replication
Rule for the call: 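An siRNA counts as active if its G2 robust z-score lies at least 5 MADs above the screen median; here such calls match roughly 38% of GMNN control or more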
In all, the deposit lists about 59,000 reagents; below is an unselected part. About 1,550 of them (2.6%) count as active. 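G2 share is only a proxy for re-replication; each gene was hit by three separate siRNAs, and active genes were retested.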 Entries without a mark were called inactive. Reagents against one gene are numbered here. Not all columns of the deposit are shown. Not given: the amount of reagent.

DEFB4A (GeneID 1673) #1 showed G2 robust z-score -0.951; G2 cells, % of GMNN control -3.73.
With knock-down of DEFB4A (GeneID 1673) #2 the results were G2 robust z-score 6.52 (active); G2 cells, % of GMNN control 48.8.
Against DEFB4A (GeneID 1673) #3 the deposit lists G2 robust z-score -0.57; G2 cells, % of GMNN control -1.04.
C1QC (GeneID 714) #1 gave G2 robust z-score -0.701; G2 cells, % of GMNN control -1.96.
C1QC (GeneID 714) #2 gave G2 robust z-score -0.5; G2 cells, % of GMNN control -0.551.
Against C1QC (GeneID 714) #3 the deposit lists G2 robust z-score 0.778; G2 cells, % of GMNN control 8.44.
With knock-down of TRMT9B (GeneID 57604) #1, the record shows G2 robust z-score 0.551; G2 cells, % of GMNN control 6.85.
With knock-down of TRMT9B (GeneID 57604) #2, the record shows G2 robust z-score -0.0919; G2 cells, % of GMNN control 2.32.
Depletion of TRMT9B (GeneID 57604) #3 resulted in: G2 robust z-score -1.04; G2 cells, % of GMNN control -4.35.
With knock-down of EIF4G2 (GeneID 1982) #1 the results were G2 robust z-score -0.434; G2 cells, % of GMNN control -0.0884.
EIF4G2 (GeneID 1982) #2 scored G2 robust z-score -0.785; G2 cells, % of GMNN control -2.55.
EIF4G2 (GeneID 1982) #3 gave G2 robust z-score 1.55; G2 cells, % of GMNN control 13.8.
Depletion of SYVN1 (GeneID 84447) #1 gave: G2 robust z-score 3.8; G2 cells, % of GMNN control 29.7.
With knock-down of SYVN1 (GeneID 84447) #2 the results were G2 robust z-score 1.49; G2 cells, % of GMNN control 13.5.
Against SYVN1 (GeneID 84447) #3, the entry reads G2 robust z-score -0.325; G2 cells, % of GMNN control 0.68.
Silencing of SLC35F4 (GeneID 341880) #1 came out at: G2 robust z-score 4.79; G2 cells, % of GMNN control 36.7.
Against SLC35F4 (GeneID 341880) #2 the deposit lists G2 robust z-score -0.463; G2 cells, % of GMNN control -0.288.
After knock-down of SLC35F4 (GeneID 341880) #3 the results were G2 robust z-score 0.185; G2 cells, % of GMNN control 4.27.

Entries listed so far whose gene name starts with D or d:
DEFB4A (GeneID 1673) #1 → G2 robust z-score: -0.951; G2 cells, % of GMNN control: -3.73
DEFB4A (GeneID 1673) #2 → G2 robust z-score: 6.52 (active); G2 cells, % of GMNN control: 48.8
DEFB4A (GeneID 1673) #3 → G2 robust z-score: -0.57; G2 cells, % of GMNN control: -1.04

More entries follow.
With knock-down of KATNBL1 (GeneID 79768) #1, the screen gave G2 robust z-score 1.4; G2 cells, % of GMNN control 12.8.
KATNBL1 (GeneID 79768) #2 gave G2 robust z-score 1.3; G2 cells, % of GMNN control 12.1.
Silencing of KATNBL1 (GeneID 79768) #3 gave: G2 robust z-score 0.572; G2 cells, % of GMNN control 6.99.
Against SLC17A7 (GeneID 57030) #1, the entry reads G2 robust z-score 2.27; G2 cells, % of GMNN control 19.
SLC17A7 (GeneID 57030) #2 scored G2 robust z-score 0.154; G2 cells, % of GMNN control 4.05.
Against SLC17A7 (GeneID 57030) #3, the entry reads G2 robust z-score 0.576; G2 cells, % of GMNN control 7.02.
GPR107 (GeneID 57720) #1 gave G2 robust z-score -1.25; G2 cells, % of GMNN control -5.85.
Knock-down of GPR107 (GeneID 57720) #2 came out at: G2 robust z-score -0.907; G2 cells, % of GMNN control -3.41.
With knock-down of GPR107 (GeneID 57720) #3 the results were G2 robust z-score -0.247; G2 cells, % of GMNN control 1.23.
PPID (GeneID 5481) #1 gave G2 robust z-score -0.408; G2 cells, % of GMNN control 0.0985.
PPID (GeneID 5481) #2 gave G2 robust z-score 0.701; G2 cells, % of GMNN control 7.9.
With knock-down of PPID (GeneID 5481) #3 the results were G2 robust z-score -0.562; G2 cells, % of GMNN control -0.984.
